Assay results taken from the supplement of paper PMC5407854, “Inhibitor of ppGalNAc-T3-mediated O-glycosylation blocks cancer cell invasiveness and lowers FGF23 levels” (eLife, 2017).
In all, about 1,700 compounds were measured (“T3 sensor activation Q score (MG/GFP ratio z-score vs DMSO controls)”: median about 0.25, highest 2% from about 1.9 on). This is one part of the list.

test system: ppGalNAc-T3 sensor; assay: T3 sensor activation Q score (MG/GFP ratio z-score vs DMSO controls) (SD units); higher = more sensor activation (inhibition of ppGalNAc-T3 glycosylation); settings: HEK293 sensor cells; 10 µM; 6 h
Description: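 Cells were treated with compound at 10 uM for 6 h, then MG/GFP ratio was read by flow cytometry (10,000 cells per well, duplicate wells). Q = (R - R_neg)/SD_neg relative to DMSO vehicle controls; the signal rises when the glycosyltransferase is inhibited.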

SMILES	T3 sensor activation Q score
O=C1CN=C(c2ccc[nH]2)c2cc(Cl)ccc2N1	0.2
O=[N+]([O-])c1ccc(-c2ccccc2)c([As](=O)(O)O)c1	0.35
C[C@]12CC[C@@H]3c4ccc(OC(=O)N(CCCl)CCCl)cc4CC[C@H]3[C@@H]1CC[C@@H]2OP(=O)(O)O	-0.8
C[C@H]1CC[C@@]2(C)[C@@H](CC[C@@H]3[C@@H]2CC[C@]2(C)[C@@H](O)CC[C@@H]32)C1	3
CCOP(=O)(OCC)/C(C#N)=C/c1ccc(Br)cc1	0.6
c1ccc(C2NCCc3[nH]cnc32)cc1 (stereo unspecified)	0.4
CCOC(=O)c1ccc2[nH]c(-c3ccc(S(=O)(=O)F)cc3)cc(=O)c2c1	0.95
O=c1cc(-c2nn[nH]n2)[nH]c(=O)[nH]1	0.45
NN=C1C(Cl)=C(Cl)C(Cl)=C1Cl	-1.5
CCN(CC)c1ccc(C=C2C(=O)NC(=S)NC2=O)cc1	-0.95
Cn1c(CCCC(=O)O)nc2cc(N(CCCl)CCCl)ccc21	-0.35
c1cncc(C2Nc3cccc4cccc(c34)N2)c1	1.65
O=c1cccc2n1C[C@H]1C[C@@H]2CN2CCCC[C@@H]12	0.2
COC(=O)C1C(O)C(C)C(O)C(C)/C=C\C=C(C)C(=O)Nc2c(C)c(OC(C)=O)c3c(c2O)C(=O)C(C)=C2OCOC(=C23)C(C)=CC(C)(O)C(O)C(C)C1O (stereo unspecified)	-0.9
c1cnc2c(c1)ccc1ncccc12	1.15
N#CC12CNCC1CN=N2 (stereo unspecified)	1.65
Cc1nc(C)c(C(=O)N/N=C/c2ccc(N(CCCl)CCCl)cc2)s1	0.55
O=c1cccc2n1C[C@@H]1CNC[C@H]2C1	0.35
CN1CCN(c2nc(N)cc(=O)[nH]2)CC1	0.85

SMILES	T3 sensor activation Q score
CC(C)(C)c1cc(C=C(C#N)C#N)cc(C(C)(C)C)c1O	-4.4
O=C1N[C@H]2[C@H](O)[C@H](O)[C@@H](O)[C@H](O)[C@@H]2c2cc3c(c(O)c21)OCO3	-0.7
O=C1C[C@@H]2OCC=C3C[N+]4([O-])CC[C@]56c7ccccc7N1[C@H]5[C@H]2[C@H]3C[C@@H]64 (stereo partly specified)	0.2
FCCN(CCF)c1cccc(Cl)c1	1.9
C=C1C/C(=C/C)C(=O)O[C@@H]2CCN3CC=C(COC(=O)[C@]1(C)O)[C@H]23	0.65
O=C1/C(=C\c2ccccc2)C2OCC=C3CN4CCC56c7ccccc7N1C5C2C3CC46 (stereo unspecified)	0.85
C=C1C(=O)O[C@H]2C[C@@]3(C)O[C@@H]3CC/C(C)=C/[C@@H](OC(C)=O)[C@H]12	1.05
O=P(OC1=CCCCC1)(c1ccccc1)c1ccccc1	1.05
Nc1nc(N)c2cnnn2n1	0.5
O=[N+]([O-])c1cc([As](=O)(O)c2ccc(O)c([N+](=O)[O-])c2)ccc1O	-1.4
CN1C2CCC1[C@@H](COC(=O)c1ccccc1)[C@@H](O)C2 (stereo partly specified)	0.75
O=C1N(c2nncs2)CCN1[N+](=O)[O-]	2.65
N=Cc1c(O)n(-c2ccccc2)c(=O)n(-c2ccccc2)c1=O	1.25
CSc1nc(N)c(N=Nc2ccc([As](=O)(O)O)cc2)c(=O)[nH]1	-1.35
CN1CCCC1c1ccc(=O)[nH]c1 (stereo unspecified)	0.55
CCCC(=O)N(C)C1=Nc2ccc(Cl)cc2C(c2ccccc2)=[N+]([O-])C1	-0.25
COc1ccc2c(c1)NP(=S)(Oc1ccccc1)N2 (stereo unspecified)	-0.15
C=C1C[C@@H]2[C@H](CC[C@]3(C)C(=O)CC[C@@H]23)[C@@]2(C)C=CC(=O)C=C12	0.45
CN(C)P(=O)(N(C)C)N1CC1	-0.4

SMILES	T3 sensor activation Q score
Cn1cc(C=O)c2nccnc21	-1.5
C1CC2NCCC3NCCC(N1)N32 (stereo unspecified)	-0.95
C=CCN1CCC23c4c5ccc(O)c4OC2C(=O)CCC3(O)C1C5 (stereo unspecified)	0.65
CC(=O)Nc1ccc([As](=O)(O)c2ccc([N+](=O)[O-])cc2)cc1	0.1
O=P1(N(CCCl)CCCl)NCCCO1 (stereo unspecified)	-0.1
COc1ccc(C(=O)OC2CCC3(C)C4CCC5C6(O)CC(O)C7(O)C(CN8CC(C)CCC8C7(C)O)C6(O)CC53OC24O)cc1OC (stereo unspecified)	0.75
C1CN1c1nc(N2CC2)nc(N2CC2)n1	0.65
O=C(O)c1[nH]c(=O)[nH]c(=O)c1F	0.75
Cc1c(C(=O)c2ccccc2)c2ccccc2n1C	1.35
CN1C(=O)CC[C@@]2(C)C1=CC[C@@H]1[C@@H]2CC[C@@]2(C)[C@H]1CC[C@]2(C)O	0.4
COc1cc2c(cc1O)C[C@H]1c3c(cc(O)c(OC)c3-2)CCN1C	-0.55
COc1cc(C=C2C(=O)NC(=O)NC2=O)ccc1O	0.7
O=C(O)CN1C(=O)CN=C(c2ccccn2)c2cc(Cl)ccc21	0.1
C/C=C/CC1(CC)C(=O)NC(=S)NC1=O	-0.45
CN(C)C1CCc2[nH]c3c(F)cc(F)cc3c2C1 (stereo unspecified)	1.25
CCC1CN1P(=O)(Oc1ccc(Cl)cc1)N1CC1CC (stereo unspecified)	1.35
NC(=S)c1cn([C@@H]2O[C@H](CO)[C@@H](O)[C@H]2O)c2ncnc(N)c12	4.95
CN1CCC2(O)OCCCC2C1 (stereo unspecified)	0.45
